The other results are listed elsewhere or left out. Further columns of the screen follow, without active or inactive calls. Compounds called inactive in the main read-out are mostly missing here. The note in brackets gives the kind of curve behind each potency; many fits are weak.
Assay: qHTS Assay for Lipid Storage Modulators in Drosophila S3 Cells;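 on cell number change: cells counted by Cell Tracker Red CMTPX staining in the red channel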
Settings: BODIPY lipid droplet fluorescence, 18-24 h; for cell number change: measured here: cell count max response, cells fed with added oleic acid
Procedure, shortened: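 Laser-scanning cytometry quantifies lipid droplet accumulation (500–530 nm total intensity; droplet/cell object ratio) in oleic acid-fed (400 uM added) Drosophila S3 cells treated with a concentration series. 20 uM Triacsin C defined 100% inhibition.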

[1] = measured here: lipid fluorescence (Fed channel) AC50, cells fed with added oleic acid
[2] = measured here: cell number channel AC50, cells fed with added oleic acid

Row | SMILES | cell number change [%] | AC50 [1] | AC50 [2]
1 | COc1ccc(C(=O)Nc2ccc(S(=O)(=O)N3CCOCC3)cc2)cc1[N+](=O)[O-] | -1.35 | 29.1 µM [falling, single point] | 
2 | CC1(C)CC(=O)C2=C(C1)Nc1ccccc1NC2c1ccc(F)c(F)c1 (configuration not stated) | -22.3 | 14.6 µM [falling, single point] | 
3 | Cn1cc([N+](=O)[O-])c(C(=O)NC2CCCCCCC2)n1 | 11.6 |  | 
4 | COc1cc(C(=O)Nc2nccs2)ccc1OCc1c(C)noc1C |  | 0.291 µM [rising, partial curve] | 0.259 µM [rising, partial curve, poor fit]
5 | CCOc1ccc(C(CC(=O)O)NC(=O)C(CC)c2ccccc2)cc1 (configuration not stated) | -1.39 | 29.1 µM [falling, single point] | 
6 | COc1ccc(-c2nc3nc(C)cc(Nc4cccc(C(F)(F)F)c4)n3n2)cc1 | 12.4 | 9.2 µM [rising, partial curve] | 
7 | COc1ccc(NC(=O)c2cc(-c3ccccc3)oc2C)cc1 | 38.5 |  | 10.3 µM [rising, partial curve, poor fit]
8 | Cc1ccc(-c2nc(COC(=O)c3c(C)noc3C)cs2)cc1 | -26.4 | 16.4 µM [falling, single point] | 
9 | Cn1c(SCC(=O)Nc2ccc(N3CCOCC3)cc2)nnc1C(F)(F)F | 2.33 | 0.651 µM [falling, single point] | 
10 | CCOC(=O)CSc1nc2ccc(S(=O)(=O)N3CCOCC3)cc2[nH]1 | -15.3 | 0.206 µM [falling, full curve, poor fit] | 0.0651 µM [falling, partial curve]
11 | Cc1ccc(N2CCN(C(=O)C3CCC(=O)N(Cc4ccc(Cl)cc4)C3)CC2)c(C)c1 (configuration not stated) |  | 0.58 µM [falling, single point] | 
12 | O=C(Nc1scc(-c2ccccc2)c1C(=O)O)c1ccccc1F | 37.5 | 29.1 µM [rising, single point] | 
13 | CCOc1ccc(C(=O)Cc2ccc3oc(C(=O)O)cc3c2)c(O)c1 | -101 | 20.6 µM [falling, partial curve] | 32.6 µM [falling, partial curve]
14 | O=c1[nH][nH]c2cc(=O)n(-c3cccc(C(F)(F)F)c3)nc12 | -24.8 | 23.1 µM [falling, single point] | 
15 | CCc1ccc(C(=O)Nc2cccc(-c3nn[nH]n3)c2)s1 | -19.2 |  | 
16 | Cc1cccc(N2CC(C(=O)Nc3nnc(SCC(=O)Nc4nccs4)s3)CC2=O)c1 (configuration not stated) | -66.7 | 0.0651 µM [falling, full curve, poor fit] | 0.0146 µM [falling, full curve]

Quoted at random: two entries already listed, in no set order.
Row | SMILES | cell number change [%] | AC50 [1] | AC50 [2]
12 | O=C(Nc1scc(-c2ccccc2)c1C(=O)O)c1ccccc1F | 37.5 | 29.1 µM [rising, single point] | 
13 | CCOc1ccc(C(=O)Cc2ccc3oc(C(=O)O)cc3c2)c(O)c1 | -101 | 20.6 µM [falling, partial curve] | 32.6 µM [falling, partial curve]

From PubChem BioAssay AID2685 (National Center for Advancing Translational Sciences (NCATS), 2010)
